Experimental data published in article PMC10151401.
Results are given in words; binding and its absence hold for the method and conditions named. A result given as binding can be weak or reduced; the word gives no strength.

Molecular target: HOP1, Bombyx mori (Bombyx mori)
Assay: two-hybrid; Gal4 system, pGBDU-C1 (binding domain) and pGAD-C1 (activation domain) in PJ69-4A strains, mated diploids spotted in 10-fold serial dilutions on SD-LEU-URA and SD-HIS, 3-5 days at 30°C

- binding: binds
Substance: PCH2, Bombyx mori (from UniProt Q1HQ67)
